Laboratory results as given in PubChem BioAssay AID248 (DTP/NCI, 2004).
The list shows only some results of the screen, not a fair sample: it gathers tests that were run many times, whatever their T/C, doses with no T/C, and many T/C values between a quarter and a half above the control. Other doses and runs of a compound stand elsewhere. T/C: endpoint of the treated group in % of that of the vehicle group. Some entries give survivors of the animals treated and no T/C: the source files T/C as zero there, which appears to mark a toxic dose or a test without result, not a measured value. Some survivor counts are full or nearly so, which does not show that the dose was tolerated: survival well below the control is almost never listed, so the zero probably covers shortened survival too. Survivors were counted at the toxicity check, usually on the fifth day, unless a day is given; later deaths do not show. Schedules are NCI's codes, read here as Q, the interval in days (D) or hours (H), X, the number of doses. Some entries were tested several times; their values stand side by side, smallest first.

System: L1210 leukemia ip in BDF1 mice, survival T/C
Test: NCI In Vivo Anticancer Drug Screen. Data for tumor model L1210 Leukemia (intraperitoneal) in B6D2F1 (BDF1) mice
Settings: T/C endpoint: mean survival time, higher T/C = longer survival
[1] = dose: 400.0 mg/kg/injection, schedule: Q04DX003 (ip), vehicle: Klucel (hydroxypropylcellulose) (HPC)

O=C(O)/C=C/Sc1ccccc1
survivor count (dose: 100.0 mg/kg/injection, schedule: Q04DX003 (ip), vehicle: Klucel (hydroxypropylcellulose) (HPC)): 2 of 6 and 4 of 6
survivor count (dose: 200.0 mg/kg/injection, schedule: Q04DX003 (ip), vehicle: Klucel (hydroxypropylcellulose) (HPC)): 0 of 6
survivor count [1]: 0 of 6

ClCC1CC2CC1C1OC21 (stereo not drawn)
survivor count (dose: 200.0 mg/kg/injection, schedule: Q01DX001 (ip), vehicle: saline): 0 of 4
survivor count (dose: 400.0 mg/kg/injection, schedule: Q01DX001 (ip), vehicle: saline): 0 of 4

O=C(c1ccccc1CO)N1CCCCC1
survivor count (dose: 400.0 mg/kg/injection, schedule: Q04DX002 (ip), vehicle: Klucel (hydroxypropylcellulose) (HPC)): 3 of 3

COc1ccccc1OCCOCCN(C/C=C(\C)CCC=C(C)C)C/C=C(\C)CCC=C(C)C
survivor count [1]: 4 of 6

NC(=O)N/N=C1\CC2CC1C1C=CCC21 (stereo not drawn)
survivor count (dose: 400.0 mg/kg/injection, schedule: Q01DX001 (ip), vehicle: carboxymethylcellulose (CMC)): 2 of 4
